Measured values reported in patent EP4676952A2 (dated 2026).
These are yes or no findings as the source states them, for the method shown. In cells and extracts the contact can be indirect. Some binding calls cover weakened binding; strength is not graded here. Where a sequence is shown, tags or fusion partners need not be part of it.

Assays:
[1] = biological target: T1, C2a fragment of human C2 (made by cleavage of C2 with C1s) (human) (UniProt P06681); assay: pull-down and ELISA taken together
T1 sequence (looked up): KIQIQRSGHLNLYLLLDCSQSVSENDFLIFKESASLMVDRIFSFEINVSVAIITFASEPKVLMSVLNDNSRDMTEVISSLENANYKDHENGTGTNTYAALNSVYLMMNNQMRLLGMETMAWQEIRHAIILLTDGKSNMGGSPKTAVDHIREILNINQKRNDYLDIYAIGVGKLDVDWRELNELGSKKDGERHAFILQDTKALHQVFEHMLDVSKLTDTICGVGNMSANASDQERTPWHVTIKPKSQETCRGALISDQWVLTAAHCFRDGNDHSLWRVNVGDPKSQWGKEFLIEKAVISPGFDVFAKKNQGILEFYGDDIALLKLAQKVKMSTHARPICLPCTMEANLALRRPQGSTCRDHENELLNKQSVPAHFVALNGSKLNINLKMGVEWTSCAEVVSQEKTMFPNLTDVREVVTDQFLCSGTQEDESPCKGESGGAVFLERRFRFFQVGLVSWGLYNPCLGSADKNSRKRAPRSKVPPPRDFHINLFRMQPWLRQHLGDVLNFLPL

[2] = biological target: T1, C2a fragment of human C2 (made by cleavage of C2 with C1s) (human); assay: pull-down with cobalt resin and western blot
[3] = biological target: T1, C2a fragment of human C2 (made by cleavage of C2 with C1s) (human); assay: pull-down of C1s-cleaved C2 with His-tagged nanobody on cobalt resin, western blot

binding [1]: binds
binding [2]: binds
binding [3]: binds
B1: Clone 1B10 C2 nanobody (Nab1B10), monovalent, His-tagged (VHH)
VHH: QVQLQESGGGLVQAGGSLRLSCAASGHTFRSYYMGWFRQAPGKEREFVASISWTGGSTEYADSVKGRFTISRDNAKNTVYLQMNSLKPEDTAAYYCAADYSGDFLLSDLDSWGQGTQVTVSS
notes: Alpaca VHH expressed in E. coli BL21 from the pMES4 vector; single 15 kDa band on SDS-PAGE; also called NablBlO; Nabl BIO; not shown: His tag (monovalent form is 'His-tagged', purified on cobalt resin)
